Measurements from patent US20230055566A1.
No constants are given. Whether binding was seen depends on the method and setting. Some entries that bind do so weakly or less than the wild type.

Protein sequences, listed by entry. Tags and fused reporters are not part of them. Lines headed by an entry give the natural chain unless they say otherwise; changes in a name come on top. Chains listed by the source or under a name are the forms on record and can include a tag or linker.
recombinant human FGFR1b-Fc (P11362, form named): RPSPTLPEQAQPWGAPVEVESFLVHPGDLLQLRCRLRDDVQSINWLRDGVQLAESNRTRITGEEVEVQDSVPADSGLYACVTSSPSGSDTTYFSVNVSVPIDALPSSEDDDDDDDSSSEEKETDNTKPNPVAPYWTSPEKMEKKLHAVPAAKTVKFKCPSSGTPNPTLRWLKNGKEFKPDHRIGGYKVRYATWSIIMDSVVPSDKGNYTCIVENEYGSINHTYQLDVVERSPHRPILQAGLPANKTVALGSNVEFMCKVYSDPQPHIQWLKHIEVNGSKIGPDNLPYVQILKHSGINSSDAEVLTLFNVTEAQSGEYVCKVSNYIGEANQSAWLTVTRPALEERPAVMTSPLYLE

How the values were obtained:
[1] = molecular target: recombinant human FGFR1b-Fc (human) (UniProt P11362); experiment: ELISA on FGFR family Fc fusion proteins
[2] = molecular target: recombinant human FGFR1b-Fc (human) (UniProt P11362); experiment: ELISA, plate coated with HuFGFR1b
[3] = molecular target: recombinant human FGFR1b-Fc (human) (UniProt P11362); experiment: SPR (Biacore)

binding [1] | binding [2] | binding [3] | Binder
binds | binds | – | Ab 21 (antibody, V domains shown) VH: EVQLHQSGTVLARPGASVKMSCKTSGYTFTNYWMHWIKQRPGQGLEWIGAIYPENGDINYNQKFKGKAKLTAVTSASTAYMDLSSLTNEDSAVYYCTSRGDYWGQGTTLTVSS VL: QIVLTQSPAIMSASPGEKVTMTCSASSGLSYMSWYQQKPGSSPRLLIYDTSNLASGVPVRFSGSGSGTSYSLTISRMEAEDAATYYCQQWSSYPYTFGGGTKLEIK
binds | – | binds | Ab hu21-26 (antibody, human IgG1, V domains shown) VH: EVQLVQSGAEVKKPGASVKVSCKASGYTFTNYWMHWVRQAPGQGLEWMGAIYPENRDINYNQKFKGRVTLTRDTSISTAYMELSRLRSDDTAVYYCTSRGDYWGQGTTVTVSS VL: AIQLTQSPSSLSASVGDRVTITCSASSGLSYMSWYQQKPGKAPKLLIYDTSNLASGVPSRFSGSGSGTDFTLTISSLQPEDFATYYCQQWSSYPYTFGQGTKLEIK
binds | – | binds | Ab hu21-21 (antibody, V domains shown) VH: EVQLVQSGAEVKKPGASVKVSCKASGYTFTNYWMHWVRQAPGQGLEWMGAIYPENGDINYNQKFKGRVTLTRDTSISTAYMELSRLRSDDTAVYYCTSRGDYWGQGTTVTVSS VL: AIQLTQSPSSLSASVGDRVTITCSASSGLSYMSWYQQKPGKAPKLLIYDTSNLASGVPSRFSGSGSGTDFTLTISSLQPEDFATYYCQQWSSYPYTFGQGTKLEIK
